Here are results for 6 molecules from paper PMC5865211, “The orphan GPR50 receptor promotes constitutive TGFβ receptor signaling and protects against cancer development” (Nature Communications, 2018).

By UniProt entry, the sequences of proteins in these tests, tags left out.
UniProt O88495: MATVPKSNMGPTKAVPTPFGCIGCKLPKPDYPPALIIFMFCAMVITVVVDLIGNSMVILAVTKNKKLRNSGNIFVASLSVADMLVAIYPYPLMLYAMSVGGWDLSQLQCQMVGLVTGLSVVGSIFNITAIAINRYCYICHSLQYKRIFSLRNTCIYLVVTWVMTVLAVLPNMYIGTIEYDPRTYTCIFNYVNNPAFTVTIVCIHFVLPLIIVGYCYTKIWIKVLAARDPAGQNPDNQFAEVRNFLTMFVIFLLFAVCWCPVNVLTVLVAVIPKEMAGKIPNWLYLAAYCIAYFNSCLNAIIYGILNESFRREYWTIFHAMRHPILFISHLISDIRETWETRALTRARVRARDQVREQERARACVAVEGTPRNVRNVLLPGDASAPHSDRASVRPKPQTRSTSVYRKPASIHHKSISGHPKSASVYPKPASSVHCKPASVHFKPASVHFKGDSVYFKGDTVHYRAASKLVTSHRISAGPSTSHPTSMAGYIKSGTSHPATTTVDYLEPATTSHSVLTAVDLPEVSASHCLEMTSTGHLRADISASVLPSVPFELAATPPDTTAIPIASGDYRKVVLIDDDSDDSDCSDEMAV

No constants are given. Whether binding was seen depends on the method and setting. Binding seen in cells or lysates may run through a third protein. Some entries that bind do so weakly or less than the wild type. For part of these data: Where a sequence is shown, tags or fusion partners need not be part of it.

Assay [1] has as its target T1, TβRI, endogenous mouse (mouse (endogenous in C57/Bl6 tissue and 4T1 cells)) (UniProt Q64729).
T1 sequence: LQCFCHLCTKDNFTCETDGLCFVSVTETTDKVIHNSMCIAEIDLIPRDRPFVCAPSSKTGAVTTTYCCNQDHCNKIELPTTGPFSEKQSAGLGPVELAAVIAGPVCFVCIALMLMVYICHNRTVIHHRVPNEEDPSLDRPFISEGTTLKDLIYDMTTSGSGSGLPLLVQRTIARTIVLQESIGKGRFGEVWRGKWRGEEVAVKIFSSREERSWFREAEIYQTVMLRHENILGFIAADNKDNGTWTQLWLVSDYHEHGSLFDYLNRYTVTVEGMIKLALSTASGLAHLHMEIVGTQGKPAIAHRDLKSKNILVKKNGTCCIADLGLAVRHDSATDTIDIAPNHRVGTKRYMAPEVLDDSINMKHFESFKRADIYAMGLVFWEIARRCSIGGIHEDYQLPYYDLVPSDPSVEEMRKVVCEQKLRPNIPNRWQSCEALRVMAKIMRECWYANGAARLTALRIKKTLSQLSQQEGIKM
As to the kind of experiment: proximity ligation; Duolink In Situ Red kit goat/rabbit with anti-GPR50 (goat) and anti-TβRI (rabbit); median eminence and third ventricle of wt and GPR50ko mouse brain slices.

Assay [2] concerns the target T1, TβRI, endogenous mouse (mouse (endogenous in C57/Bl6 tissue and 4T1 cells)). The assay is described as follows: co-IP; mouse tissue (cortex, total brain, lung) of C57BL/6J wt and GPR50ko mice solubilised in 0.5% CHAPS in TEM buffer, antibody overnight.
Assay [3] deals with T2, TβRI-Renilla luciferase 8 (Rluc8) fusion protein (UniProt P36897).
T2 sequence: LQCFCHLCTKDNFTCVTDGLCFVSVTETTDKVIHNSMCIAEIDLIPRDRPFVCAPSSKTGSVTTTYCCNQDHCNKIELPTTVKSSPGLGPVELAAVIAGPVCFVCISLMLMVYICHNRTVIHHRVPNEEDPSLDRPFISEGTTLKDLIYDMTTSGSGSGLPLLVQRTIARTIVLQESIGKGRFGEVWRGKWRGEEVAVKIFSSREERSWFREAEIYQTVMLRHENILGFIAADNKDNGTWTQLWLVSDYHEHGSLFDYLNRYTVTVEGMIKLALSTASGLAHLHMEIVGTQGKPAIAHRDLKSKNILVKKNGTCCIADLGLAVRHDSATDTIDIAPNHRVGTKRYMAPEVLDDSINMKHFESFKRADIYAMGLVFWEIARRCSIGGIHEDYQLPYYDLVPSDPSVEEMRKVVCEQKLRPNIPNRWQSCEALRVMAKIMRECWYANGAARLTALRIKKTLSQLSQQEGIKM
As to the kind of experiment: FRET or BRET; BRET competition in HEK293T cells; fixed amounts of TβRI-Rluc8 and YFP fusion, mock or myc-FKBP12 co-expressed; stimulated with TGFβ (0.6 nM, 30 min, 37 °C).

In assay [4] the target is T2, TβRI-Renilla luciferase 8 (Rluc8) fusion protein. The assay is described as follows: FRET or BRET; BRET donor saturation in intact HEK293T cells; fixed TβRI-Rluc8, increasing YFP fusion; with TGFβ stimulation (0.6 nM, 30 min at 37 °C). A general note: BRET reads energy transfer from a luciferase to a nearby fluorophore.
The target of the next assay is T3, HA-TβRI (UniProt P36897).
T3 sequence: T2 sequence
As to the kind of experiment: co-IP; cell lysates in TNMG buffer with 0.5% NP-40, 2-5 µg antibody 3 h, protein G beads 2 h, washes with 0.05% NP-40; endogenous or transfected proteins (rat tanycytes, NCI-H520 with si-RNA controls, MDA-MB-231, 4T1, HEK293T, SNU638); some samples with TGFβ 2 ng/mL 1 h.

In the next assay the target is myc-FKBP12 (UniProt P62942). The assay is described as above.

Regarding “GPR50, endogenous mouse (from UniProt O88495 1-591) (receptor)”, the binding entry in assay [1] and in assay [2] was “binds” in each case.

With “GPR50wt-YFP (from UniProt Q13585 1-617) (receptor)”, the binding entry in assay [3] and in assay [4] was “binds” throughout.

On to “GPR50Δ4 (from UniProt Q13585 1-617) (receptor)”, for which, in the assay with HA-TβRI, the binding result was “binds”.

B1: Flag-TβRI (receptor, UniProt P36897 34-503)
chain: T2 sequence
Consider B1, for which the binding entry with myc-FKBP12 was “binds”.

B2: HA-TβRI (receptor, UniProt P36897 34-503)
chain: T2 sequence
Take B2: the binding result in the assay with myc-FKBP12 is “binds”.

B3: GPR50Δ4-YFP (receptor, human, UniProt Q13585 1-617, looked up)
chain: MGPTLAVPTPYGCIGCKLPQPEYPPALIIFMFCAMVITIVVDLIGNSMVILAVTKNKKLRNSGNIFVVSLSVADMLVAIYPYPLMLHAMSIGGWDLSQLQCQMVGFITGLSVVGSIFNIVAIAINRYCYICHSLQYERIFSVRNTCIYLVITWIMTVLAVLPNMYIGTIEYDPRTYTCIFNYLNNPVFTVTIVCIHFVLPLLIVGFCYVRIWTKVLAARDPAGQNPDNQLAEVRNFLTMFVIFLLFAVCWCPINVLTVLVAVSPKEMAGKIPNWLYLAAYFIAYFNSCLNAVIYGLLNENFRREYWTIFHAMRHPIIFFSGLISDIREMQEARTLARARAHARDQAREQDRAHACPAVEETPMNVRNVPLPGDAAAGHPDRASGHPKPHSRSSSAYRKSASTHHKSVFSHSKAASGHLKPVSGHSKPASGHPKSATVYPKPASVHFKADSVHFKGDSVHFKPDSVHFKPASSNPKPITGHHVSAGSHSKSAFSAATSHPKPIKPATSHAEPTTADYPKPATTSHPKPTAADNPELSASHCPEIPAIAHPVSDDSDLPESASSPAAGPTKPAASQLESDTIADLPDPTVVTTSTNDYHDVVVIDVEDDPDEMAV
notes: also called GPR50-YFP; source: HEK293T, transfected, in intact cells
Regarding B3, the binding result in assay [3] and in assay [4] was “binds” throughout.
